# Values of other authors, collected in patent US20230256099A1, “Safe Use of Bile Acids and Their Salts as Enhancers for Nasal Delivery of Pharmaceuticals” (priority 2020, published 2023).
# For at least one compound, name, drawing or mass did not settle the structure.
# Settings: aqueous; cited from earlier work
compound,measurement,value
"C[C@H](CCC(=O)NCC(=O)[O-])[C@H]1CC[C@H]2[C@@H]3[C@H](O)C[C@@H]4C[C@H](O)CC[C@]4(C)[C@H]3C[C@H](O)[C@]12C.[Na+] [SGC, sodium glycocholate]",CMC,~2^−5 mM
